Measured values reported in PMC2831923.
These are yes or no findings as the source states them, for the method shown. In cells and extracts the contact can be indirect. Binding can be weak; no strength is given. One block for each binder: values may come before it.

Key:
[1] = molecular target: GST-labeled NCoR (nuclear receptor co-repressor 1); assay: pull-down; GST-labeled coregulators immobilized on sepharose beads; 35S-PPARα from reticulocyte lysate; with 1,000 μM MEHP; SDS-PAGE and phosphoimager quantification; only the target purified
[2] = molecular target: GST-labeled p300 (E1A binding protein p300); assay: as above
[3] = molecular target: GST-labeled NCoR (nuclear receptor co-repressor 1); assay: pull-down; GST-labeled coregulators immobilized on sepharose beads; 35S-PPARα from reticulocyte lysate; vehicle (no ligand); SDS-PAGE and phosphoimager quantification; only the target purified
[4] = molecular target: GST-labeled p300 (E1A binding protein p300); assay: pull-down; GST-labeled coregulators immobilized on sepharose beads; 35S-PPARα from reticulocyte lysate; with 100 μM Wy14643; SDS-PAGE and phosphoimager quantification; only the target purified

- binding [1]: binds
- binding [2]: binds
- binding [3]: binds
- binding [4]: binds
B1: human PPARα (peroxisome proliferator-activated receptor α) (protein, UniProt Q07869 1-468)
chain: MVDTESPLCPLSPLEAGDLESPLSEEFLQEMGNIQEISQSIGEDSSGSFGFTEYQYLGSCPGSDGSVITDTLSPASSPSSVTYPVVPGSVDESPSGALNIECRICGDKASGYHYGVHACEGCKGFFRRTIRLKLVYDKCDRSCKIQKKNRNKCQYCRFHKCLSVGMSHNAIRFGRMPRSEKAKLKAEILTCEHDIEDSETADLKSLAKRIYEAYLKNFNMNKVKARVILSGKASNNPPFVIHDMETLCMAEKTLVAKLVANGIQNKEAEVRIFHCCQCTSVETVTELTEFAKAIPGFANLDLNDQVTLLKYGVYEAIFAMLSSVMNKDGMLVAYGNGFITREFLKSLRKPFCDIMEPKFDFAMKFNALELDDSDISLFVAAIICCGDRPGLLNVGHIEKMQEGIVHVLRLHLQSNHPDDIFLFPKLLQKMADLRQLVTEHAQLVQIIKKTESDAALHPLLQEIYRDMY
modifications: 35S-labeled

- binding [1]: binds
- binding [3]: binds
- binding [4]: binds
B2: mouse PPARα (peroxisome proliferator-activated receptor α) (protein, UniProt P23204 1-468)
chain: MVDTESPICPLSPLEADDLESPLSEEFLQEMGNIQEISQSIGEESSGSFGFADYQYLGSCPGSEGSVITDTLSPASSPSSVSCPVIPASTDESPGSALNIECRICGDKASGYHYGVHACEGCKGFFRRTIRLKLVYDKCDRSCKIQKKNRNKCQYCRFHKCLSVGMSHNAIRFGRMPRSEKAKLKAEILTCEHDLKDSETADLKSLGKRIHEAYLKNFNMNKVKARVILAGKTSNNPPFVIHDMETLCMAEKTLVAKMVANGVEDKEAEVRFFHCCQCMSVETVTELTEFAKAIPGFANLDLNDQVTLLKYGVYEAIFTMLSSLMNKDGMLIAYGNGFITREFLKNLRKPFCDIMEPKFDFAMKFNALELDDSDISLFVAAIICCGDRPGLLNIGYIEKLQEGIVHVLKLHLQSNHPDDTFLFPKLLQKMVDLRQLVTEHAQLVQVIKKTESDAALHPLLQEIYRDMY
modifications: 35S-labeled
